Source: publication doi:10.1101/2025.08.07.669170

The chains behind the UniProt entries cited, without tags or fusion partners.
UniProt Q9UN81: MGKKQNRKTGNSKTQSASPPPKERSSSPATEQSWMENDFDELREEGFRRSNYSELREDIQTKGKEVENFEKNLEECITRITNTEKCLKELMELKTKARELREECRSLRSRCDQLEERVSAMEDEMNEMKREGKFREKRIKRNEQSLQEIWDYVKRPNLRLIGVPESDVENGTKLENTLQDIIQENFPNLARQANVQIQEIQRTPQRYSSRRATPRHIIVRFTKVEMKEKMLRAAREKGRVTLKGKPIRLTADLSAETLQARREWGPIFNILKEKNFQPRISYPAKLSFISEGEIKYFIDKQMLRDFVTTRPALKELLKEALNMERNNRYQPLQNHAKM
UniProt Q9UHA4: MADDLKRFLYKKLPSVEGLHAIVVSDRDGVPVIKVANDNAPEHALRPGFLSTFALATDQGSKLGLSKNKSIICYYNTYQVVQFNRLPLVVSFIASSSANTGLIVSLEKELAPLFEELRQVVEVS
UniProt Q99496: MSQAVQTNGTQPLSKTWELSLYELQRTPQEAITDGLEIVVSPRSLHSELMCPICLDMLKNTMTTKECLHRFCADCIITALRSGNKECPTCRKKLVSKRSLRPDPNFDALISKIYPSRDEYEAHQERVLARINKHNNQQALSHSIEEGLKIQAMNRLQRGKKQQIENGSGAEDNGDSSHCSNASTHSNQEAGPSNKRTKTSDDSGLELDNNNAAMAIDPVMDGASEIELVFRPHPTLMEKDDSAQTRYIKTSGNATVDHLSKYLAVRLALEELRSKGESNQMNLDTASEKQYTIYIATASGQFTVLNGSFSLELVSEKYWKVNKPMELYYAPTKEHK

Biological target: LINE-1 ORF1p (human (endogenous in N2102Ep)) (UniProt Q9UN81)
Test: affinity purification with mass spectrometry

binding | Molecule
binds | LAMOR 3 (from UniProt Q9UHA4 1-124)
binds | RNF2 (from UniProt Q99496 1-336)
binds | AKAP17A (protein, UniProt Q02040 1-695) MAAATIVHDTSEAVELCPAYGLYLKPITKMTISVALPQLKQPGKSISNWEVMERLKGMVQNHQFSTLRISKSTMDFIRFEGEVENKSLVKSFLACLDGKTIKLSGFSDILKVRAAEFKIDFPTRHDWDSFFRDAKDMNETLPGERPDTIHLEGLPCKWFALKESGSEKPSEDVLVKVFEKFGEIRNVDIPMLDPYREEMTGRNFHTFSFGGHLNFEAYVQYREYMGFIQAMSALRGMKLMYKGEDGKAVACNIKVSFDSTKHLSDASIKKRQLERQKLQELEQQREEQKRREKEAEERQRAEERKQKELEELERERKREEKLRKREQKQRDRELRRNQKKLEKLQAEEQKQLQEKIKLEERKLLLAQRNLQSIRLIAELLSRAKAVKLREQEQKEEKLRLQQQEERRRLQEAELRRVEEEKERALGLQRKERELRERLLSILLSKKPDDSHTHDELGVAHADLLQPVLDILQTVSSGCVSATTLHPLGGQPPAGAPKESPAHPEADGAPKSVNGSVAEEAPCKEVQSSCRVVPEDGSPEKRCPGGVLSCIPDNNQQPKGIPACEQNVSRKDTRSEQDKCNREPSKGRGRATGDGLADRHKRERSRARRASSREDGRPRKERRPHKKHAYKDDSPRRRSTSPDHTRSRRSHSKDRHRRERSRERRGSASRKHSRHRRRSERSRSRSPSRHRSTWNR

Results are given in words; binding and its absence hold for the method and conditions named. Binding seen in cells or lysates may run through a third protein. These calls come from enrichment with a bait or labelling near it, and not all partners need be listed.
